{"sequences": {"note": "By UniProt entry, the sequences of proteins in these tests, tags left out. Residues count along the entry.", "UniProt P30561, residues 10-848": "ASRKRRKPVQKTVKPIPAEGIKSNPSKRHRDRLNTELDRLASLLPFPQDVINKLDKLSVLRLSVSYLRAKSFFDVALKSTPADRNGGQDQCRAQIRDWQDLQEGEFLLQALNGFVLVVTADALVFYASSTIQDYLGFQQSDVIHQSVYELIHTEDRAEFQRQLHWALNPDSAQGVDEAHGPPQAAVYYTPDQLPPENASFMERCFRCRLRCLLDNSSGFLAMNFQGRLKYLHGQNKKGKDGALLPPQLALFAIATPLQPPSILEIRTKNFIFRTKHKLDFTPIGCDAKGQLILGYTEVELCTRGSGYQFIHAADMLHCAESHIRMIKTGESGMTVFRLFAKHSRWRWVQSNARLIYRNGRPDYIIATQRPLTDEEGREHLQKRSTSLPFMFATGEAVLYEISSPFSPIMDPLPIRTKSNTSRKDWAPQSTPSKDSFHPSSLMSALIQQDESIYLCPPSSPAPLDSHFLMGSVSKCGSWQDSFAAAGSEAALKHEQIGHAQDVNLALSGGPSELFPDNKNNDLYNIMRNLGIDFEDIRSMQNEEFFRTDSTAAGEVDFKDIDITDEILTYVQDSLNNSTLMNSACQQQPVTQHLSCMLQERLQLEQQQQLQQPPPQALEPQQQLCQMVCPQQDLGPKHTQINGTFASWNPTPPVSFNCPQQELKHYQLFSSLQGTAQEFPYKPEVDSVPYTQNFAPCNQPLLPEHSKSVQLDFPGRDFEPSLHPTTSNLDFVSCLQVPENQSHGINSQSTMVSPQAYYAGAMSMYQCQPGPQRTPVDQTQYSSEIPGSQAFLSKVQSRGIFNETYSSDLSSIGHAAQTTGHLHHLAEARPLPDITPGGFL", "UniProt P53762": "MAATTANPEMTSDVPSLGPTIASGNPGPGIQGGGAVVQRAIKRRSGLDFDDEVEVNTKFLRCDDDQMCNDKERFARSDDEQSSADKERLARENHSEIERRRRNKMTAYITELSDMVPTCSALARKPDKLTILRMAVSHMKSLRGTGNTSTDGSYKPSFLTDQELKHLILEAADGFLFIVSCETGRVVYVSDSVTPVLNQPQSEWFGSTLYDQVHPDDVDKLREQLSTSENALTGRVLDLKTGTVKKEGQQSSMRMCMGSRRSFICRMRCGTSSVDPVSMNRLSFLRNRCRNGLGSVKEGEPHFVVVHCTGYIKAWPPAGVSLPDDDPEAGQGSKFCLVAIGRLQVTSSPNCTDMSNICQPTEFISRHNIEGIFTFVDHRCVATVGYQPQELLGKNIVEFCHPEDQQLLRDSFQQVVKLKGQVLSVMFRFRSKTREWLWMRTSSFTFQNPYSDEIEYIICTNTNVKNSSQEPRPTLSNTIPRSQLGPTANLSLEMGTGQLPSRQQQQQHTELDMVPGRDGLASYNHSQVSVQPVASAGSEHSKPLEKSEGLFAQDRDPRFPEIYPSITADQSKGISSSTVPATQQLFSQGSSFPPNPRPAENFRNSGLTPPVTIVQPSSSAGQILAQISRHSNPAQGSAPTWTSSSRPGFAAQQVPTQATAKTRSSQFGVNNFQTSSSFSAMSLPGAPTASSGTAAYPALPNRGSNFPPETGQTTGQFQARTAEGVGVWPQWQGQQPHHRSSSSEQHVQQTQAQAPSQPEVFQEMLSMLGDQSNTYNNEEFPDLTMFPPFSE"}, "source": "paper PMC8986748", "key": {"[1]": {"molecular_target": "T1, Jun dimerization protein 2 (Jdp2) (mouse (endogenous in MEFs)) (UniProt P97875)", "T1 sequence": "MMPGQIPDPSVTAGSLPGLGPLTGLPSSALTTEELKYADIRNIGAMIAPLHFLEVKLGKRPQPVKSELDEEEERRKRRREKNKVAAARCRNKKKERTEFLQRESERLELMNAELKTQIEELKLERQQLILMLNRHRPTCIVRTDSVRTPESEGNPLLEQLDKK", "experiment": "co-IP; endogenous proteins; cell lysates (300 ug) from cytosolic and nuclear fractions of WT and Jdp2-/- MEFs; immunoprecipitated with anti-AhR or (WT MEFs) anti-Jdp2 antibodies on protein A/G beads; western blot; IgG as negative control"}, "[2]": {"molecular_target": "aryl hydrocarbon receptor (AhR) (mouse (endogenous in MEFs)) (UniProt P30561)", "experiment": "co-IP; endogenous proteins; cell lysates (300 ug) from cytosolic and nuclear fractions of WT and Jdp2-/- MEFs; immunoprecipitated with anti-AhR or (WT MEFs) anti-Jdp2 antibodies on protein A/G beads; western blot; IgG as negative control"}}, "note": "These are yes or no findings as the source states them, for the method shown. Binding seen in cells or lysates may run through a third protein. Some results given as binding are weak or reduced against the parent protein; the word gives no strength.", "data": [{"molecule": "aryl hydrocarbon receptor (AhR) (from UniProt P30561 10-848)", "values": [{"measurement": "binding", "setting": "[1]", "result": "binds"}]}, {"molecule": "AhR nuclear translocator (Arnt) (from UniProt P53762 1-791)", "values": [{"measurement": "binding", "setting": "[2]", "result": "binds"}]}, {"molecule": "nuclear factor (erythroid-derived 2)-like 2 (Nrf2) (protein, UniProt Q60795 1-597) MMDLELPPPGLQSQQDMDLIDILWRQDIDLGVSREVFDFSQRQKDYELEKQKKLEKERQEQLQKEQEKAFFAQFQLDEETGEFLPIQPAQHIQTDTSGSASYSQVAHIPKQDALYFEDCMQLLAETFPFVDDHESLALDIPSHAESSVFTAPHQAQSLNSSLEAAMTDLSSIEQDMEQVWQELFSIPELQCLNTENKQLADTTAVPSPEATLTEMDSNYHFYSSISSLEKEVGNCGPHFLHGFEDSFSSILSTDDASQLTSLDSNPTLNTDFGDEFYSAFIAEPSDGGSMPSSAAISQSLSELLDGTIEGCDLSLCKAFNPKHAEGTMEFNDSDSGISLNTSPSRASPEHSVESSIYGDPPPGFSDSEMEELDSAPGSVKQNGPKAQPAHSPGDTVQPLSPAQGHSAPMRESQCENTTKKEVPVSPGHQKAPFTKDKHSSRLEAHLTRDELRAKALHIPFPVEKIINLPVDDFNEMMSKEQFNEAQLALIRDIRRRGKNKVAAQNCRKRKLENIVELEQDLGHLKDEREKLLREKGENDRNLHLLKRRLSTLYLEVFSMLRDEDGKPYSPSEYSLQQTRDGNVFLVPKSKKPDTKKN", "values": [{"measurement": "binding", "setting": "[1]", "result": "binds"}, {"measurement": "binding", "setting": "[2]", "result": "binds"}]}]}
